Here are results for seven molecules from PMC5675994.

Chains of the proteins cited; added tags and fusions are not shown. Lines headed by an entry give the natural chain unless they say otherwise; changes in a name come on top.
UniProt Q07540: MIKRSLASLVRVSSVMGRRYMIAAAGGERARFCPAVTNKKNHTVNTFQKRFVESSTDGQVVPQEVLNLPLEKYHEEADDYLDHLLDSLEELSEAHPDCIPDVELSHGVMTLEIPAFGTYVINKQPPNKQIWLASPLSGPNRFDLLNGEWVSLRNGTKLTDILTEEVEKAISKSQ

Experiment [1] has as its target T1, Nfs1-His6 (S. cerevisiae) (UniProt P25374).
T1 sequence: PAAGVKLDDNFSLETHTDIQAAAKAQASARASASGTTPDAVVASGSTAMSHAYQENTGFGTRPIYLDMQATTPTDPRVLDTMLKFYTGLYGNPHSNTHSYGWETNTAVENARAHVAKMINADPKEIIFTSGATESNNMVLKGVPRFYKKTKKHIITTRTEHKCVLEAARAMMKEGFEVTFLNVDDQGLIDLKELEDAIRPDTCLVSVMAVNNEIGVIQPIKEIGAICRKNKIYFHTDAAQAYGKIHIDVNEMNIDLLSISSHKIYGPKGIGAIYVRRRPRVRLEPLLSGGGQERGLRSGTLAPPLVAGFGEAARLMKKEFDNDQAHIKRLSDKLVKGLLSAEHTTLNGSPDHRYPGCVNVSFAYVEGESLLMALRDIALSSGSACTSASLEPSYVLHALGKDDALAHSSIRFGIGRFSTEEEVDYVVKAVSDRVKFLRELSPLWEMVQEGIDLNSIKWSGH
In words: affinity purification with mass spectrometry; Nfs1-His6 held on Ni-NTA superflow agarose from sonicated, cleared lysate of isolated mitochondria of the Gal-Nfs1-His6 yeast strain; 50 mM TrisCl pH 7.5, 80 mM KCl, 10% glycerol, wash 40 mM imidazole, elution 400 mM imidazole; eluate analysed by LC-MS/MS.

Experiment [2] deals with Yfh1-His6 (S. cerevisiae) (UniProt Q07540). In words: affinity purification with mass spectrometry; Yfh1-His6 held on Ni-NTA superflow agarose from French-press lysate (108,000xg supernatant) of isolated mitochondria of the Yfh1-His6 yeast strain; 50 mM TrisCl pH 7.5, 80 mM KCl, 10% glycerol, wash 40 mM imidazole with 0.1% Triton X-100, elution 400 mM imidazole; eluate analysed by LC-MS/MS.

These are yes or no findings as the source states them, for the method shown. Binding seen in cells or lysates may run through a third protein. These calls come from enrichment with a bait or labelling near it, and not all partners need be listed. For some assays here: Sequences can lack the tags named with a protein.

B1: Altered inheritance of mitochondria protein 32 (protein, UniProt Q04689 1-311)
chain: MLRITVKTLQQRASFHHSFKHISVPDLHTRAQNDQTNCYCQEINARLPSKTDPLDPHIKLPHRTPNYNKHVLLLSPGDRFAQPWKVAWNHNLDTNTNRPYNAISKLRSHLGGSPGILINAVHLQNEFIPRPKQHDEWLYFFVIPDMKLYVIKETDIEEFASFLDEGAIQAPKLSFQDYLSGKAKASQQVHEVHHRKLTRFQGETFLRDWNLVCGHYKRDAKCGEMGPDIIAAFQDEKLFPENNLALISHIGGHIFAGNVIFYKLFGREKMQNKLDSLWFGKVYPHNLKLLCENLENGKIIDEMYRGGISMN
As for B1, the binding entry in experiment [1] and in experiment [2] was “binds” in each case.

B2: mRNA-binding protein PUF3 (protein, UniProt Q07807 1-879)
chain: MEMNMDMDMDMELASIVSSLSALSHSNNNGGQAAAAGIVNGGAAGSQQIGGFRRSSFTTANEVDSEILLLHGSSESSPIFKKTALSVGTAPPFSTNSKKFFGNGGNYYQYRSTDTASLSSASYNNYHTHHTAANLGKNNKVNHLLGQYSASIAGPVYYNGNDNNNSGGEGFFEKFGKSLIDGTRELESQDRPDAVNTQSQFISKSVSNASLDTQNTFEQNVESDKNFNKLNRNTTNSGSLYHSSSNSGSSASLESENAHYPKRNIWNVANTPVFRPSNNPAAVGATNVALPNQQDGPANNNFPPYMNGFPPNQFHQGPHYQNFPNYLIGSPSNFISQMISVQIPANEDTEDSNGKKKKKANRPSSVSSPSSPPNNSPFPFAYPNPMMFMPPPPLSAPQQQQQQQQQQQQEDQQQQQQQENPYIYYPTPNPIPVKMPKDEKTFKKRNNKNHPANNSNNANKQANPYLENSIPTKNTSKKNASSKSNESTANNHKSHSHSHPHSQSLQQQQQTYHRSPLLEQLRNSSSDKNSNSNMSLKDIFGHSLEFCKDQHGSRFIQRELATSPASEKEVIFNEIRDDAIELSNDVFGNYVIQKFFEFGSKIQKNTLVDQFKGNMKQLSLQMYACRVIQKALEYIDSNQRIELVLELSDSVLQMIKDQNGNHVIQKAIETIPIEKLPFILSSLTGHIYHLSTHSYGCRVIQRLLEFGSSEDQESILNELKDFIPYLIQDQYGNYVIQYVLQQDQFTNKEMVDIKQEIIETVANNVVEYSKHKFASNVVEKSILYGSKNQKDLIISKILPRDKNHALNLEDDSPMILMIKDQFANYVIQKLVNVSEGEGKKLIVIAIRAYLDKLNKSNSLGNRHLASVEKLAALVENAEV
Consider B2, for which the binding entry in experiment [1] and in experiment [2] was “binds” each time.

B3: Iron sulfur cluster assembly protein 2, mitochondrial (protein, UniProt Q12056 27-156)
chain: YHPKVIDHYTNPRNVGSMDKSLANVGTGIVGAPACGDVIKLQIQVNDKSGIIENVKFKTFGCGSAIASSSYMTELVRGMSLDEAVKIKNTEIAKELSLPPVKLHCSMLAEDAIKAAIKDYKTKRNPSVLH
Turning to B3, the binding entry in experiment [1] and in experiment [2] was “binds” each time.

B4: Alcohol dehydrogenase 1 (protein, UniProt P00330 1-348)
chain: MSIPETQKGVIFYESHGKLEYKDIPVPKPKANELLINVKYSGVCHTDLHAWHGDWPLPVKLPLVGGHEGAGVVVGMGENVKGWKIGDYAGIKWLNGSCMACEYCELGNESNCPHADLSGYTHDGSFQQYATADAVQAAHIPQGTDLAQVAPILCAGITVYKALKSANLMAGHWVAISGAAGGLGSLAVQYAKAMGYRVLGIDGGEGKEELFRSIGGEVFIDFTKEKDIVGAVLKATDGGAHGVINVSVSEAAIEASTRYVRANGTTVLVGMPAGAKCCSDVFNQVVKSISIVGSYVGNRADTREALDFFARGLVKSPIKVVGLSTLPEIYEKMEKGQIVGRYVVDTSK
For the molecule B4, the binding result in experiment [1] and in experiment [2] was “binds” each time.

B5: Putative transcription factor SEF1 (protein, UniProt P34228 1-1148)
chain: MVKDNRDSDQDQDFSSAHMKRQPEQQQLQQHQFPSKKQRISHHDDSHQINHRPVTSCTHCRQHKIKCDASQNFPHPCSRCEKIGLHCEINPQFRPKKGSQLQLLRQDVDEIKSKLDTLLANDSVFVHLLQQIPMGNSLLNKLNLHPTPTPGTIIPNPDSSPSSGSPTSSAAQRDSKVSVQTYLSREPQLLQANQGSNTNKFKANNEASSHMTLRASSLAQDSKGLVATEPNKLPPLLNDSALPNNSKESLPPALQMAFYKNNSAGNTPNGPFSPIQKTYSPHTTSTTVTTTTNQPPFAATSHVATNNNADRTKTPVVATTTTMPLLPSPHANVDEFVLGDISISIEKANRLHHIFVTRYLPYFPIMYSNNATELYSQSQLLFWTVMLTACLSDPEPTMYCKLSSLIKQLAIETCWIRTPRSTHISQALLILCIWPLPNQKVLDDCSYRFVGLAKSLSYQLGLHRGEFISEFTRTQTSMPNAEKWRTRTWLGIFFAELCWASILGLPPTSQTDYLLEKALSCGDEESEEDNNDSIDNNNNDKRNKKDEPHVESKYKLPGSFRRLLSLANFQAKLSHIIGSSTSSPDGLLEPKYRAETLSILGKELDLLAKTLNFQSDDTVNIYFLYVKLTVCCFAFLPETPPTDQIPYVTEAYLTATKIVTLLNNLLETHQLIELPIYIRQAATFSALILFKLQLTPLLPDKYFDSARQSVVTIHRLYRNQLTAWATSVENDISRTASMLEKLNFVLIMHPEVFVEEDGIISRMRSHLTGSLFYDLVWCVHEARRREMDPEYNKQALEKAAKKRKFSSNGIYNGTSSTGGITDRKLYPLPLYNHISRDDFETVTKTTPSGTTVTTLVPTKNALKQAEKLAKTNNGDSDGSIMEINGIPLSMLGETGSVKFQSLFANTSNSNDYNNNRTLLDASNDISIPSNSIYPVASVPASNNNPQSTKVDYYSNGPSVIPDLSMKRSVSTPVNHFPASVPGLRNHPVGNLSNNVTLGIDHPIPREHSNLQNVTMNYNNQFSNANAIGRSQSSMSHSRTPIASKSNNMTDLHSVVSDPGSSKSTAYPPLSLFSKSNDINSNKTNQRFSTGTNTVTSSNFQTIDNENNVKTPGNKLTDFFQQQSAGWIEGNSSNDDFFGWFDMNMEQGF
Take B5: the binding entry in experiment [1] and in experiment [2] was “binds” in each case.

B6: Uncharacterized WD repeat-containing protein YOL087C (protein, UniProt Q99247 1-1116)
chain: MNQLTVSYGLISPDYCTSQDAHILPITKILYPDIPGKNYFLTSGRDGSIILHKNTQLSNEPETAATTIKNDAIRMQVHSDWASDLIHVNMKNSDPSAGDTFISVSHDFSIVLISVNAQLTTWDKKIIGDHDDYIKCIVPIHYEMSNDYELEEQEGGPDNVHDGINNGIVVDEQNNFLFVTGGLDRKIKLWCLSSGPEKMATLLHTFDNAQSNDTGSIYSMSPIIPKYSFDDNQTSRPFDFVAGDCNGDLIFYSCKYRKEVIRIQNAHRTNIKVVRTLDDSTRLISTSSDGVINVWDLNCRHDQTTGALQLPKKIGSWSWDSSIWCVQGTSLDKLYFGDSQGNVMRANLSSYEDAKLTRIFKPDHHHHHHHHHEHEEQNISTTDAKVKKYGGILDIALLPNEKLLFSFCTDSNLNVLDLTNNHFSVNEGGFALTRSSLLTNRRHVITENTKGQMQRWDIVSCELLNTFDSSEGSFDDIVMKYTSKEILSHWCTVSVKVGMLFVKINPKFLKTEVYGSALKDYQVVNNIEINSDERYNLGKIVINSLFNEFISYEVQKDKLLRKKIFSLKKKDLTNSLTLDTGYNSESKKNNKDKKRKSTFKISSTLSIGNTNSSGTPPNSAPATPVMAETIVLEEQPLLQSASDKAIDDSLELVQPLPASKKPYFRTQSSGSLLSRKFKSFRSTSGRATTGLNTPEEPKGILPDTPHVINDDSAFPQAINTTQQSKDATPESMLWNHPFKLEQKLSAISSQDLPSNNTHNKLRSSENSRANSTSTLEGNEKKKPEFMPDLLEQIQESYKQQYMNTSSLKYLTKRLPVTKIIKASSCPIIRVKSATLVLVHLWKEGSCGGRVLFSTLLPPSHVDNETVSGGKENSKPPDDEEVDLQAVDDDKLGKYDLIDGELGSRLNRRQIFEQLEENLPYWFAKALFRDIKTVEEQPKLNFLIMPWSSVGGSEAAGNENKKKFISASDTTESSGNDSSDSSLGNGNEAVSPSTQQQFHNMLKFGRPKTSEQELNPTDLPRISEANVKLVAPGMIRVKKIKLYVADRFETKTPEMKAKMEPSLWLDLLCRGQVLDNDMTLNTVRTLYWKSQGDIVLEYRRKVHNSPLVHEVNGNEGK
As to B6, the binding result in experiment [1] and in experiment [2] was “binds” throughout.

B7: Cytochrome b-c1 complex subunit 2, mitochondrial (protein, UniProt P07257 17-368)
chain: LTVSARDAPTKISTLAVKVHGGSRYATKDGVAHLLNRFNFQNTNTRSALKLVRESELLGGTFKSTLDREYITLKATFLKDDLPYYVNALADVLYKTAFKPHELTESVLPAARYDYAVAEQCPVKSAEDQLYAITFRKGLGNPLLYDGVERVSLQDIKDFADKVYTKENLEVSGENVVEADLKRFVDESLLSTLPAGKSLVSKSEPKFFLGEENRVRFIGDSVAAIGIPVNKASLAQYEVLANYLTSALSELSGLISSAKLDKFTDGGLFTLFVRDQDSAVVSSNIKKIVADLKKGKDLSPAINYTKLKNAVQNESVSSPIELNFDAVKDFKLGKFNYVAVGDVSNLPYLDEL
Consider B7, for which the binding result in experiment [1] and in experiment [2] was “binds” throughout.
